These are yes or no findings as the source states them, for the method shown. Some binding calls cover weakened binding; strength is not graded here. For part of these data: Where a sequence is shown, tags or fusion partners need not be part of it.
Tests used:
Assay in all cases: cross raster image correlation spectroscopy (cross RICS, fluorescence fluctuation spectroscopy); two-channel FFS in live HeLa nuclei stably expressing eGFP-HP1α_(I165E) (endogenous HP1α knocked down), transiently transfected with an mCherry or RFP657 tagged partner; ratio of cross RICS amplitude to the limiting channel's RICS amplitude gives the fraction of heterocomplex
[1] = molecular target: HP1β-mCh (UniProt P83916)
[2] = molecular target: HP1γ-mCh (UniProt Q13185)
[3] = molecular target: T1, histone-lysine N-methyltransferase (SUV39H1) tagged to mCherry (SUV39H1-mCh) (UniProt O43463)
T1 sequence: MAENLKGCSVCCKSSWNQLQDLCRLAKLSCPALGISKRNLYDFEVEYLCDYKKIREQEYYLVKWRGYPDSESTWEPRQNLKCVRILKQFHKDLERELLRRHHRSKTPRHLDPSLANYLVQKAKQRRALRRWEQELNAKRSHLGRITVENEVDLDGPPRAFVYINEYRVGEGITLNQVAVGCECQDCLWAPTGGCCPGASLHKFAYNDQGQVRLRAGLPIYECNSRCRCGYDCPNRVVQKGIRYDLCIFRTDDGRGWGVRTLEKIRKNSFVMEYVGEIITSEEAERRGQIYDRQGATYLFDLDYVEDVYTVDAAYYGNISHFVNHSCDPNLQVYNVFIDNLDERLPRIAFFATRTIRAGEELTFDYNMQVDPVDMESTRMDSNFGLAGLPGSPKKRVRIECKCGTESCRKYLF

Chains of the proteins cited; added tags and fusions are not shown. Lines headed by an entry give the natural chain unless they say otherwise; changes in a name come on top.
UniProt P83916: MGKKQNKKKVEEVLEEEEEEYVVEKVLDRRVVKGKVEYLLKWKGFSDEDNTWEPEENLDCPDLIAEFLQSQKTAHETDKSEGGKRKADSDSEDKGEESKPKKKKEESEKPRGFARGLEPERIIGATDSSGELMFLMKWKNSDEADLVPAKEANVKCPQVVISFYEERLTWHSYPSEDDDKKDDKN
UniProt Q13185: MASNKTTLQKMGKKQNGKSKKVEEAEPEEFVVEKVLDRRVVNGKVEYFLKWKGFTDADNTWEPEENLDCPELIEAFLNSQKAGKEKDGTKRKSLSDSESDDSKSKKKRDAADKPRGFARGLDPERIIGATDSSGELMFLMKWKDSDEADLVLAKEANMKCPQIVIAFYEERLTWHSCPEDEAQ
UniProt P45973: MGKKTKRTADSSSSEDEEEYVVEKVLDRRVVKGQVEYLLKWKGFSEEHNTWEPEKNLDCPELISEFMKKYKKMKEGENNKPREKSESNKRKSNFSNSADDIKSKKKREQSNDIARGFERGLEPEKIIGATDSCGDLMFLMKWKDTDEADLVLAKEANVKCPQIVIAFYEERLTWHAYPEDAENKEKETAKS

Substance: eGFP tagged to HP1α dimer mutant I165E (eGFP-HP1α_(I165E)) (from UniProt P45973 1-191)
- binding [1]: no binding
- binding [2]: no binding
- binding [3]: binds

Source: publication PMC11472067
